Screen size: about 320,000 compounds; about 22,000 (6.9%) were called active. This list was built around the results that the source calls inconclusive (neither active nor inactive); the mix of calls is not that of the screen. Calls come from the whole dose curve; as a rule, active = well fitted inhibition curve with a large enough effect; inconclusive = small, poorly fitted or top-dose-only effect, or another doubt; inactive = no such curve, though single readings can be large or run the other way. Where the call is inconclusive, the potency comes from a doubtful curve fit.
experiment: Primary qHTS for delayed death inhibitors of the malarial parasite plastid, 96 hour incubation; conditions: P. falciparum luciferase reporter growth; series mostly up to 28.7 µM
Outline: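 Parasite growth measured via integrated firefly luciferase reporter in P. falciparum. Infected erythrocytes at 2% hematocrit, 0.05% parasitemia final were treated 96 hours at 37 C under 5% CO2, and luminescence was read.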
Potency is the fitted concentration of half-maximal effect.

Compound | Potency
CN1CCN(c2ccc(Cl)cc2NC(=O)CC2OC(=O)c3ccccc32)CC1 (configuration not stated) | inconclusive: 18.5 µM [inhibitor, single point]
CC(C)CN(CC(C)C)c1ccc(C=C2C(=O)NC(=S)NC2=O)cc1[N+](=O)[O-] | inconclusive: 4.15 µM [inhibitor, partial curve, poor fit]
COc1ccc(/C=C/C(=O)c2ccc([N+](=O)[O-])o2)cc1OC | inconclusive: 16.5 µM [inhibitor, single point]
CC/C(=N\NC(=S)Nc1ccccc1)c1c(O)[nH]c(=O)[nH]c1=O | inconclusive: 10.4 µM [inhibitor, single point]
Cc1nn2c3ccccc3n(Cc3ccccc3)c2nc1=O | inconclusive: 13.1 µM [inhibitor, single point]
Cc1ccc(NC(=O)COC(=O)C2COc3ccccc3O2)cc1 (configuration not stated) | inactive
COc1ccc(OC)c(C(=O)/C=C/c2cccnc2)c1 | active: 7.38 µM
O=C(N/N=C/C(Cl)=C\c1ccccc1)c1cccs1 | active: 3.7 µM
c1ccc(CNc2nnnn2-c2ccccc2)cc1 | inconclusive: 18.5 µM [inhibitor, single point]
CCOc1ccc(-n2c(C)nc3cc(C(=O)NCCN4CCOCC4)ccc32)cc1 | inconclusive: 11.7 µM [inhibitor, partial curve, poor fit]
O=c1c2c(-c3ccccc3)csc2ncn1/N=C/c1ccc(O)c([N+](=O)[O-])c1 | inconclusive: 18.5 µM [inhibitor, single point]
Cc1onc(-c2ccccc2)c1C(=O)N/N=C/c1cn(C)c2ccccc12 | inconclusive: 14.7 µM [inhibitor, single point]
Cc1cccc(N(CC(=O)NCCSCc2ccccc2)S(C)(=O)=O)c1C | inactive
CCCCNC(=O)c1sc(=S)n2c1[nH]c(=O)c1ccc(C(=O)NCCc3ccc(OC)c(OC)c3)cc12 | inconclusive: 1.47 µM [inhibitor, full curve]
CCN(CC)c1ccc(S(=O)(=O)N2CCCCC2)cc1NC(=O)C1CCC1 | inconclusive: 6.57 µM [inhibitor, partial curve]
CN(CC(=O)Nc1cc(S(=O)(=O)N2CCCC2)ccc1Cl)Cc1ccc2c(c1)OCO2 | inconclusive: 13.1 µM [inhibitor, single point]
CNCC(O)c1ccc(O)c(O)c1 (configuration not stated) | inactive
CCCCNC(=O)CNC(=S)N(Cc1ccccc1F)C1CCCCC1 | inconclusive: 18.5 µM [inhibitor, single point]
CN1CCc2nc3ccc(Cl)cc3c(-c3ccccc3Cl)c2C1 | inconclusive: 11.7 µM [inhibitor, single point]
Cc1ccc(NC(=O)C2(N(C(=O)Cn3nnnc3N)c3ccc(C)cc3)CCCCC2)cc1 | active: 13.1 µM
CCC(C)NS(=O)(=O)c1ccc(OC)c(Cl)c1Cl (configuration not stated) | inconclusive: 1.47 µM [inhibitor, partial curve, poor fit]
COc1cc(NC(=O)C2C3CCC(O3)C2C(=O)O)cc(OC)c1 (configuration not stated) | inconclusive: 18.5 µM [inhibitor, single point]
COc1cc(C#N)c(NS(=O)(=O)c2ccc3[nH]c(=O)sc3c2)cc1OC | inactive
Cc1ccccc1NC(=S)N(C)CCc1ccccn1 | inactive

Compound | Potency
O=S(=O)(CCc1nnc(-c2ccccc2)o1)c1ccc2ccccc2c1 | inactive
COc1ccc(S(=O)(=O)Nc2ccc(S(=O)(=O)N3CCCCC3)cc2)cc1C | inconclusive: 2.08 µM [inhibitor, full curve]
Cc1ccnc(NC(=O)CNC(=O)c2cccs2)c1 | inactive
O=C1NC(c2cc(Cl)cc([N+](=O)[O-])c2O)Nc2ccccc21 (configuration not stated) | inactive
O=C(c1ccc(Cl)c(S(=O)(=O)N2CCOCC2)c1)N(c1ccccn1)C1CCCCC1 | inconclusive: 13.1 µM [inhibitor, single point]
CCOc1ccc(OCC(=O)N2CCC3(CC2)CC(=O)c2ccccc2O3)cc1 | inconclusive: 8.28 µM [inhibitor, partial curve, poor fit]
NC1=NC(=O)C(Cc2cc(Cl)ccc2Cl)S1 (configuration not stated) | inconclusive: 0.0928 µM [inhibitor, full curve, poor fit]
CN(CCCCOc1ccc(F)cc1)Cc1ccccc1 | inconclusive: 18.5 µM [inhibitor, single point]
COC(=O)C1=C(C)N=c2s/c(=C/c3cccs3)c(=O)n2C1c1ccc(F)cc1 (configuration not stated) | inconclusive: 2.94 µM [inhibitor, single point]
COc1cc(NC(=O)CSc2nc3c(c(=O)[nH]2)CCCC3)cc(OC)c1OC | inconclusive: 18.5 µM [inhibitor, single point]
COc1ccccc1NC(=O)CSc1nc2sc(C)c(C)c2c(=O)n1C | inconclusive: 9.28 µM [inhibitor, partial curve, poor fit]
COC(=O)c1ccccc1NC(=O)c1ccccc1SC | inconclusive: 13.1 µM [inhibitor, partial curve, poor fit]
O=C(CO/N=C/c1ccc(OC(F)F)cc1)NC1CCCCC1 | inactive
Cc1ccc(S(=O)(=O)N2CCCC(c3nc4c(nnn4Cc4ccc5c(c4)OCCO5)c(=O)[nH]3)C2)cc1 (configuration not stated) | inconclusive: 10.4 µM [inhibitor, single point]
Cc1ccc(C)c(OCC(=O)Nc2nc3ccc([N+](=O)[O-])cc3s2)c1C | inactive
Clc1ccc(C2=CSC3=NCCN23)cc1Cl | inconclusive: 9.28 µM [inhibitor, partial curve]
CCOC(=O)N1CCN(CC(=O)N2CCC(C(N)=O)CC2)CC1 | inactive
Cc1cc(OC(C)C(=O)NC2CCN(Cc3ccccc3)CC2)c2c(C)cc(=O)oc2c1 (configuration not stated) | inconclusive: 13.1 µM [inhibitor, single point]
Cc1ccc(NC(=O)CCc2c(C)nc3ncnn3c2C)nc1 | inconclusive: 10.4 µM [inhibitor, single point]
O=C(COc1ccccc1)OC(C(=O)c1ccccc1)c1ccccc1 (configuration not stated) | inconclusive: 18.5 µM [inhibitor, single point]
CN(C1CCCCC1)S(=O)(=O)c1ccc2[nH]c(=O)oc2c1 | inconclusive: 4.15 µM [inhibitor, single point]
COc1cc(/C=C/c2nc3ccccc3c(=O)[nH]2)cc(OC)c1OC | inactive
CCCn1nc(NC(=O)c2cccs2)c2cc3cc(OC)ccc3nc21 | inactive
Cc1oc(C(C)(C)C)cc1-c1cc(NC(=O)c2ccc([N+](=O)[O-])cc2)n[nH]1 | active: 2.33 µM

Exported in CSV form: part of the list above
Compound,Potency
COc1ccccc1NC(=O)CSc1nc2sc(C)c(C)c2c(=O)n1C,"inconclusive: 9.28 µM [inhibitor, partial curve, poor fit]"
COC(=O)c1ccccc1NC(=O)c1ccccc1SC,"inconclusive: 13.1 µM [inhibitor, partial curve, poor fit]"
O=C(CO/N=C/c1ccc(OC(F)F)cc1)NC1CCCCC1,inactive

The list continues:

Compound | Potency
COc1cc2c(cc1OC)CN(CC(=O)Nc1ccc(F)cc1)C(C(=O)O)C2 (configuration not stated) | inactive
CN(C)S(=O)(=O)c1cc(NC(=O)CNCCN2CCOCC2)ccc1Cl | inactive
O=C(CNC(=O)c1cccs1)N/N=C/c1ccc(O)cc1O | inconclusive: 18.5 µM [inhibitor, single point]
Cc1cccc(CS(=O)(=O)Cc2ccc(C(=O)NC(C)c3ccccc3)o2)c1 (configuration not stated) | inactive
CC(=O)Nc1ccc(S(=O)(=O)NCCNc2ccccc2[N+](=O)[O-])cc1 | inactive
N#CC1=C(N)Oc2ccc3ccc(O)cc3c2C1c1ccsc1 (configuration not stated) | inconclusive: 10.4 µM [inhibitor, single point]
Cn1cnnc1SC(C(=O)c1ccccc1)c1ccccc1 (configuration not stated) | inconclusive: 18.5 µM [inhibitor, single point]
Cc1ccc(NS(=O)(=O)c2ccc(C(=O)NCc3ccccn3)cc2)cc1 | inconclusive: 18.5 µM [inhibitor, single point]
COc1ccc(OC)c(-c2csc(NC(=O)CSCc3c(C)noc3C)n2)c1 | inconclusive: 18.5 µM [inhibitor, single point]
COc1ccc(C(=O)COC(=O)CNC(=O)c2cccs2)cc1Br | inactive
CCOc1ccc(/C=N/n2c(-c3ccccc3)n[nH]c2=S)cc1 | inactive
COc1cccc(CN2CC(C(=O)NCC3CCOCC3)CCC2=O)c1 (configuration not stated) | inconclusive: 0.37 µM [inhibitor, full curve, poor fit]
Cc1ccc(CNC(=O)CSc2nc(=O)n3ccccc3n2)cc1 | inactive
Cc1cccc(-n2ccnc2SCC(=O)Nc2cc(C)on2)c1 | active: 10.4 µM
Cn1c(N)c(C(=O)CCl)c(=O)n(C)c1=O | inactive
CCCCn1c(N)c(N(CC(C)C)C(=O)COC(=O)Cc2c(C)nc3ccccc3c2C)c(=O)[nH]c1=O | inconclusive: 1.47 µM [inhibitor, full curve]
COc1ccccc1OCC(=O)Nc1ccc(NC(=O)COc2ccccc2OC)cc1 | inactive
CC(=O)Nc1nc(C)c(-c2csc(Nc3ccccn3)n2)s1 | inconclusive: 9.28 µM [inhibitor, partial curve, poor fit]
C=C(C)CNC(=S)Nc1sc2c(c1C(=O)OCC)CC(C)(C)OC2 | inconclusive: 2.94 µM [inhibitor, single point]
Cc1cc(C(=O)COC(=O)c2cccc(O)c2)c(C)n1C1CC1 | inactive
CCc1cc2c(nc1CC)CCN(CC/C(C)=N/O[C@@H](C)c1cc(-c3c(C)cc(C)cc3C)no1)C2 | active: 7.38 µM
O=[N+]([O-])c1cc(S(=O)(=O)N2CCCC2)ccc1NCCCN1CCOCC1 | inconclusive: 5.22 µM [inhibitor, partial curve, poor fit]
CC(=O)Nc1ccc(Nc2nc(C(F)(F)F)nc3c2nnn3Cc2ccccc2Cl)cc1 | inconclusive: 18.5 µM [inhibitor, single point]
O=C(CCN1C(=O)/C(=C\c2ccccc2)SC1=S)N1CCOCC1 | inactive

Three entries picked at random from the list so far:
Compound | Potency
Cc1cccc(CS(=O)(=O)Cc2ccc(C(=O)NC(C)c3ccccc3)o2)c1 (configuration not stated) | inactive
Cc1cc(C(=O)COC(=O)c2cccc(O)c2)c(C)n1C1CC1 | inactive
Cn1c(N)c(C(=O)CCl)c(=O)n(C)c1=O | inactive
